Laboratory results taken from the supplement of paper PMC10849652.
This is one part of the list.

Chains of the proteins cited; added tags and fusions are not shown. Lines headed by an entry give the natural chain unless they say otherwise; changes in a name come on top.
UniProt O43298: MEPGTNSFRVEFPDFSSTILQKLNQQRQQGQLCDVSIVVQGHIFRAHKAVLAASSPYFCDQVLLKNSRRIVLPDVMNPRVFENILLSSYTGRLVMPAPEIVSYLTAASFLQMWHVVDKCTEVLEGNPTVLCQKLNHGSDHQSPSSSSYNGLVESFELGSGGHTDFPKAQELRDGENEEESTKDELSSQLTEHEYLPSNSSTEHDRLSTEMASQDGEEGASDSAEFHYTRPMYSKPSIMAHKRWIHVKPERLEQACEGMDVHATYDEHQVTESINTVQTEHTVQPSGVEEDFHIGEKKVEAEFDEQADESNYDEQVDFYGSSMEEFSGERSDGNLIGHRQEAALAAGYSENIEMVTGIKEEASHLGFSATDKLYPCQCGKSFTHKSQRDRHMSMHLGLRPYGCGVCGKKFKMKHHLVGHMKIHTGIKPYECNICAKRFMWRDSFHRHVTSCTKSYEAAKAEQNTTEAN
UniProt Q8N680: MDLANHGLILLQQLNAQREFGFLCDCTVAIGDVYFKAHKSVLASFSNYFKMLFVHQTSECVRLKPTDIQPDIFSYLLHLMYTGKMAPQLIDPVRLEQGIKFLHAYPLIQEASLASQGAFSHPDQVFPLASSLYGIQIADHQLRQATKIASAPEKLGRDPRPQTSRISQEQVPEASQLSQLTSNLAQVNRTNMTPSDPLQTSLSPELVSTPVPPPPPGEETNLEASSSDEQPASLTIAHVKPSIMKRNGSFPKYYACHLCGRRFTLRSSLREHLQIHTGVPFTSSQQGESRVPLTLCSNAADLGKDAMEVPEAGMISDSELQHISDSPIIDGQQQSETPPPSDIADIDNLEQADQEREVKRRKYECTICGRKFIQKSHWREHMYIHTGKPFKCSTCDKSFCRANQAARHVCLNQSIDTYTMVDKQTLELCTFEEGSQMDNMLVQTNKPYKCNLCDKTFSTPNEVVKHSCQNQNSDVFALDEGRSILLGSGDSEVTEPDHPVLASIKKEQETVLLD
UniProt Q96DA0: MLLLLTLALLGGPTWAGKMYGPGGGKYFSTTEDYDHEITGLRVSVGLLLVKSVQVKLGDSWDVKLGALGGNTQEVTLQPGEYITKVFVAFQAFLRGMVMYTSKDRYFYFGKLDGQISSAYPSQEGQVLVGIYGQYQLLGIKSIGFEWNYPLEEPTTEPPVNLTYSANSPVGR
UniProt O43829: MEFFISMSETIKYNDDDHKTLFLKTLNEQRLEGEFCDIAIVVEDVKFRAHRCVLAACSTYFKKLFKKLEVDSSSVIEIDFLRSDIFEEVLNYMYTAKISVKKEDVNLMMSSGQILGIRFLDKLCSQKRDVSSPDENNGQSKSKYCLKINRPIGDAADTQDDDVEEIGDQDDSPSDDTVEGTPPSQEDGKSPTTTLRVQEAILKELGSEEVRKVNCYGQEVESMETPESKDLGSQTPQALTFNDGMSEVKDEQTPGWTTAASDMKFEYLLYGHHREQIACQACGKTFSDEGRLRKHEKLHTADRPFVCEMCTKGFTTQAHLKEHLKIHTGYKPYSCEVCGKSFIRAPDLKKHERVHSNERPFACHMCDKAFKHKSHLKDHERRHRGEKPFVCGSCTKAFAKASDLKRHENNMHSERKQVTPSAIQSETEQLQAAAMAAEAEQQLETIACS
UniProt O43543: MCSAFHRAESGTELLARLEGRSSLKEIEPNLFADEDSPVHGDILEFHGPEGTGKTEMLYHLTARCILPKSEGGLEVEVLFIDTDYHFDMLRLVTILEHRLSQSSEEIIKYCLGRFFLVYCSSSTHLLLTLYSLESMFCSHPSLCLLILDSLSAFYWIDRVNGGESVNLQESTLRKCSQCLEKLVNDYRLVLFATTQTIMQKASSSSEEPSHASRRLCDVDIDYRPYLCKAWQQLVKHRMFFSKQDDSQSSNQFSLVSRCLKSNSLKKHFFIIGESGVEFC
UniProt O75132: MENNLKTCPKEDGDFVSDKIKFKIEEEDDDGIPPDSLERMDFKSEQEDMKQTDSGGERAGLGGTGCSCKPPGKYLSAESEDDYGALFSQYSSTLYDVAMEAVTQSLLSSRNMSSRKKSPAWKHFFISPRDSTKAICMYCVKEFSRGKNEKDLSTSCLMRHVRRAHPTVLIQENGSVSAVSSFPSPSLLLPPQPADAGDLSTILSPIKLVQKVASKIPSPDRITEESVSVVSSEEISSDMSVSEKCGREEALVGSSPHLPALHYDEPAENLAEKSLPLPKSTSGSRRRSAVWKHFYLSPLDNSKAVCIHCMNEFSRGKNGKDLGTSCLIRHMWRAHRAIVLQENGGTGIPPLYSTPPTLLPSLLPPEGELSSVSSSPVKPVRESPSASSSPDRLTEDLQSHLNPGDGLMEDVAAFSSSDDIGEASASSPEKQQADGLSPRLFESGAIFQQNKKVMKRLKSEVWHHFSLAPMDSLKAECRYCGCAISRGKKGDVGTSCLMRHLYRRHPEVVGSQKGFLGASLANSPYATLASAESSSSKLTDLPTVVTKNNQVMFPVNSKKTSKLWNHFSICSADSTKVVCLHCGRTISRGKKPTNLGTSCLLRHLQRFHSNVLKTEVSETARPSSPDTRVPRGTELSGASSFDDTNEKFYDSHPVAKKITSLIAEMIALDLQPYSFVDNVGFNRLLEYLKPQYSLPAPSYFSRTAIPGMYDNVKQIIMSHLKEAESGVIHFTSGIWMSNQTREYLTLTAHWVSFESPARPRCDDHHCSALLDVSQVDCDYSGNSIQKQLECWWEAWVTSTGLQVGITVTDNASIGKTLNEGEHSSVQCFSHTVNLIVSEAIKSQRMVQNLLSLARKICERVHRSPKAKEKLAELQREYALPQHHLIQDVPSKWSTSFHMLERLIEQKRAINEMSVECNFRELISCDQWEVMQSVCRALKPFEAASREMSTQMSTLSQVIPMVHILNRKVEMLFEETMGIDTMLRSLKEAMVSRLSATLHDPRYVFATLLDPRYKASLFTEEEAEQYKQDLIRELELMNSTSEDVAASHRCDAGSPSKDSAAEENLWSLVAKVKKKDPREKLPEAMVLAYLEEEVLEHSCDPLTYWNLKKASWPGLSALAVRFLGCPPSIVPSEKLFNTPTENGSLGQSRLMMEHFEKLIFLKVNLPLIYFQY
UniProt Q8IY57: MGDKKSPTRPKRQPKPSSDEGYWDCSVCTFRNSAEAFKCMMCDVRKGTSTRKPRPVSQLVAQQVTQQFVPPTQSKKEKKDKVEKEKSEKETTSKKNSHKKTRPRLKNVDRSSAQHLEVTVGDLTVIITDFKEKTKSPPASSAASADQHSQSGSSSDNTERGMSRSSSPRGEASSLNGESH
UniProt O95070: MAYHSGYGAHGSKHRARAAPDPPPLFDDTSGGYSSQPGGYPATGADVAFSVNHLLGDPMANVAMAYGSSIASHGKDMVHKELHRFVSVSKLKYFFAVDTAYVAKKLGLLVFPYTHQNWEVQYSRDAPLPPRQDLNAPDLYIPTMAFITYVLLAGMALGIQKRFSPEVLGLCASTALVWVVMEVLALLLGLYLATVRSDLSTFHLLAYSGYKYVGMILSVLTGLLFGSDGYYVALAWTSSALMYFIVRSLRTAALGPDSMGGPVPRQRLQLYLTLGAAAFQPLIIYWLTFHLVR
UniProt Q8TCF1: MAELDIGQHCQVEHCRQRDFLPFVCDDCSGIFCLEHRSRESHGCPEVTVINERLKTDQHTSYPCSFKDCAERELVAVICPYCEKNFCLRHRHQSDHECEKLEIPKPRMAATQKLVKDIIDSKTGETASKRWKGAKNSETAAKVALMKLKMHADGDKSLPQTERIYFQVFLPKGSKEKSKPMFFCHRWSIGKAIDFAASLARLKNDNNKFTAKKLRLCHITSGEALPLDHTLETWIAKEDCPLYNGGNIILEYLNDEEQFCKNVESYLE
UniProt Q96DT7: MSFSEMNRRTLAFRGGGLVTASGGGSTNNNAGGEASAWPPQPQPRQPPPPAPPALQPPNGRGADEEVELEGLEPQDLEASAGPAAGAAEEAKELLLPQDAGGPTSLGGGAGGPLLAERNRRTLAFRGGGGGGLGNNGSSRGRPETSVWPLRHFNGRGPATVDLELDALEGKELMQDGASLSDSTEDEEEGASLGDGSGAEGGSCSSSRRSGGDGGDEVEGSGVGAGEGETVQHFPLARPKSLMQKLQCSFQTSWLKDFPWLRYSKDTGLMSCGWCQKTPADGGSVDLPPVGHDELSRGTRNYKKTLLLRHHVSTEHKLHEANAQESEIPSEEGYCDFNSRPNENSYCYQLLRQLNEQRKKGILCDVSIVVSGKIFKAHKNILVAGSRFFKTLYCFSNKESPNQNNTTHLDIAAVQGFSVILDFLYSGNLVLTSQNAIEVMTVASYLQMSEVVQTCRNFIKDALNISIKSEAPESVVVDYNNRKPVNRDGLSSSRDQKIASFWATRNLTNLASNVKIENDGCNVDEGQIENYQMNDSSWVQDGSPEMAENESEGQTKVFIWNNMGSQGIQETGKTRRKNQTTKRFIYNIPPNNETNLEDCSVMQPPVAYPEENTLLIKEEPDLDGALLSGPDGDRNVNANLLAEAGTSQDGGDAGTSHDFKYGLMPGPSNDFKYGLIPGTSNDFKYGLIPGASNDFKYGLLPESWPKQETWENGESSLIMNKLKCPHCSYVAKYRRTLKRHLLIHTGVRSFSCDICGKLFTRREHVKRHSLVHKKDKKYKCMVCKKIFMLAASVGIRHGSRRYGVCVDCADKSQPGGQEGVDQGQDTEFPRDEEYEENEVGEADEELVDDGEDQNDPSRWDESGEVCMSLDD
UniProt O15156: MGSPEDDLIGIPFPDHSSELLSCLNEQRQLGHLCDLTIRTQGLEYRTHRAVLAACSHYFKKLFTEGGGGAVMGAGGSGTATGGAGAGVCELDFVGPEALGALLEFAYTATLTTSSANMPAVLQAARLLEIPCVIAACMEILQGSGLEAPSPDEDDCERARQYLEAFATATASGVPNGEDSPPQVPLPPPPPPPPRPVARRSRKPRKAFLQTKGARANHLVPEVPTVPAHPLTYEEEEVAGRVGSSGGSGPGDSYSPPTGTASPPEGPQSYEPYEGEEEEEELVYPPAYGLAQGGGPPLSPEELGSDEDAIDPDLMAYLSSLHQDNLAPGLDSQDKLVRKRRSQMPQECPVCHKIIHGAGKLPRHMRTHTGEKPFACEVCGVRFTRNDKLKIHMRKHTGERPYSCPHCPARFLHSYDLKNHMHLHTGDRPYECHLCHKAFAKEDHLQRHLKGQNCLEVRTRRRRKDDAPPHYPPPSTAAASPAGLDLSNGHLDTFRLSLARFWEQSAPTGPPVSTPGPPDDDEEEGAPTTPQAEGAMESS
UniProt Q8TBK6: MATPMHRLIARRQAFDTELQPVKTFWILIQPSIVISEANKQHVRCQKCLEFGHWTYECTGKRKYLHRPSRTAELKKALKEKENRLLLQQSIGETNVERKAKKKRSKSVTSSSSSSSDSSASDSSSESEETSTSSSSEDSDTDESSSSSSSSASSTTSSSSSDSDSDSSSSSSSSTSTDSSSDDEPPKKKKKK
UniProt Q96K80: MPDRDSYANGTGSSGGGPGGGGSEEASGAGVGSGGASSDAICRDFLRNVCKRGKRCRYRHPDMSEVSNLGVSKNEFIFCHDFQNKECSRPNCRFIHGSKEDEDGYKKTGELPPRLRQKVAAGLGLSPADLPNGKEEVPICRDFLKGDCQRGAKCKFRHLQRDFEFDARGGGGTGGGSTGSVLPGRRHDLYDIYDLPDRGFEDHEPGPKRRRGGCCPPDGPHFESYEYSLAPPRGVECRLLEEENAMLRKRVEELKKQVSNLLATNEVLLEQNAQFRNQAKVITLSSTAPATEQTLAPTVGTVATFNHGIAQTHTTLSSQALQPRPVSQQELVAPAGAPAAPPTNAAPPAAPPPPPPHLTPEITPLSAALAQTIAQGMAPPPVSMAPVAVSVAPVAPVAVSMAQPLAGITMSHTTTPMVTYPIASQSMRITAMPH
UniProt O15062: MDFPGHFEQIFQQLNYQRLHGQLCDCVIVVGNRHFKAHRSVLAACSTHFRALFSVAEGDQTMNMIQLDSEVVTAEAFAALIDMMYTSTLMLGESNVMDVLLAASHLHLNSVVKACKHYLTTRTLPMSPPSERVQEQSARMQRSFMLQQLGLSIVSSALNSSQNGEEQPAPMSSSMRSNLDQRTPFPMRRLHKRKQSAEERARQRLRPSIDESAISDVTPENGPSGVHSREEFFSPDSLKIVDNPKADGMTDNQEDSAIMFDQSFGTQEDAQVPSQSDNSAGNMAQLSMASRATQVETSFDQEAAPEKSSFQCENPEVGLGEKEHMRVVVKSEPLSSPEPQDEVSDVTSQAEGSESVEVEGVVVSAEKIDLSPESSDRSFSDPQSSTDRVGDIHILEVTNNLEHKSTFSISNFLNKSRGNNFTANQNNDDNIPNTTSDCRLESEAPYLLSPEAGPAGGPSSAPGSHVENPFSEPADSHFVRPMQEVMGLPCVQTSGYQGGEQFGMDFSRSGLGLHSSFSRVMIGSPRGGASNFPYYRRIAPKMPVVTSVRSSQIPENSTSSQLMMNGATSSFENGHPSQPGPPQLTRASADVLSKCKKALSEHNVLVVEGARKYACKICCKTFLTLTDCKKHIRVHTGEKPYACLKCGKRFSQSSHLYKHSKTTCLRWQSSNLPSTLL

Experiments:
Test in all cases: log2 fold change, soluble protein after heating vs DMSO (PISA); higher = thermal stabilisation; K562 lysate, 10 uM; active = over 0.2 and 3.5 SD of the protein, either way, in both replicates (recomputed)
dasatinib = compound: Cc1nc(Nc2ncc(C(=O)Nc3c(C)cccc3Cl)s2)cc(N2CCN(CCO)CC2)n1 [dasatinib]
Procedure, shortened: (§1)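 Dounce homogenisation of K562 pellets in PBS pH 7.4 with 1 mM MgCl2 produced a crude extract, used at 1 mg/mL protein. Exposure to 10 μM compound lasted 30 min, and aliquots were then heated for 3 min across 48°C-58°C, pooled and brought to 0.5% NP-40 at 4°C. The supernatant after 21,000xg for 90 min was quantified by TMTpro 16plex LC-MS/MS with channel sums equalised. Duplicate values are given as log-two fold change in thermal stability relative to solvent controls.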

[1] = compound: Cn1cc(-c2ccc3c(c2)CCN3C(=O)Cc2cccc(C(F)(F)F)c2)c2c(N)ncnc21
Procedure, shortened: as §1

quisinostat = compound: Cn1cc(CNCC2CCN(c3ncc(C(=O)NO)cn3)CC2)c2ccccc21 [quisinostat]
Procedure, shortened: as §1

[2] = compound: NC(=O)Nc1cc(-c2cccc(F)c2)sc1C(=O)N[C@H]1CCCNC1
Procedure, shortened: as §1

[3] = compound: NC(=O)c1cnc(N[C@@H]2CCCC[C@@H]2N)nc1Nc1cccc(-n2nccn2)c1
Procedure, shortened: as §1

[4] = compound: NC1(c2ccc(-c3nc4ccn5c(=O)[nH]nc5c4cc3-c3ccccc3)cc2)CCC1
Procedure, shortened: as §1

[5] = compound: NCC(=O)Nc1ccc(-n2nc(C(F)(F)F)cc2-c2ccc3c(ccc4ccccc43)c2)cc1
Procedure, shortened: as §1

vorinostat = compound: O=C(CCCCCCC(=O)Nc1ccccc1)NO [vorinostat]
Procedure, shortened: as §1

silmitasertib = compound: O=C(O)c1ccc2c(c1)nc(Nc1cccc(Cl)c1)c1ccncc12 [silmitasertib]
Procedure, shortened: as §1

[6] = compound: O=C1NC(=O)C(c2cnc3ccccn23)=C1c1cn2c3c(cc(F)cc13)CN(C(=O)N1CCCCC1)CC2
Procedure, shortened: as §1

entospletinib = compound: c1cn2cc(-c3ccc4cn[nH]c4c3)nc(Nc3ccc(N4CCOCC4)cc3)c2n1 [entospletinib]
Procedure, shortened: as §1

nilotinib = compound: Cc1cn(-c2cc(NC(=O)c3ccc(C)c(Nc4nccc(-c5cccnc5)n4)c3)cc(C(F)(F)F)c2)cn1 [nilotinib]
Procedure, shortened: as §1

[7] = compound: Cc1nc(Nc2n[nH]c3c2CN(C(=O)N[C@H](CN(C)C)c2ccccc2)C3(C)C)c2sccc2n1
Procedure, shortened: as §1

[8] = compound: Cc1ncc(-c2ccnc(Nc3ccc(S(C)(=O)=O)cc3)n2)n1C(C)C
Procedure, shortened: as §1

tipifarnib = compound: Cn1cncc1[C@@](N)(c1ccc(Cl)cc1)c1ccc2c(c1)c(-c1cccc(Cl)c1)cc(=O)n2C [tipifarnib]
Procedure, shortened: as §1

Measured: log2 fold change

ZBTB43 (UniProt O43298)
inactive: dasatinib 0.038 | [1] 0.026 | quisinostat 0.077 | [2] -0.005 | [3] 0.08 | [4] 0.03 | [5] 0.104 | vorinostat 0.097 | silmitasertib 0.004 | [6] 0.036 | entospletinib -0.006

ZCCHC4 (UniProt Q9H5U6)
inactive: nilotinib -0.024 | [7] -0.014 | dasatinib 0.115 | [8] -0.072 | [1] -0.091 | tipifarnib 0.064 | [5] -0.234 | entospletinib -0.175

ZBTB2 (UniProt Q8N680)
inactive: nilotinib 0.02 | [7] 0.011 | dasatinib 0.062 | [8] -0.001 | [1] -0.027 | quisinostat 0.078 | tipifarnib -0.012 | [2] -0.078 | [4] 0 | [5] 0.024 | vorinostat -0.033 | silmitasertib -0.008 | [6] 0.054 | entospletinib 0.041

ZBTB39 (UniProt O15060)
inactive: dasatinib -0.004 | [1] 0.064

ZG16B (UniProt Q96DA0)
inactive: nilotinib -0.033 | [7] -0.211 | [8] -0.038 | quisinostat -0.02 | tipifarnib -0.055 | [2] 0.124 | [3] -0.144 | [4] 1.73 | vorinostat 0.177 | silmitasertib -0.213 | [6] 0.411 | entospletinib -0.129

2 entries drawn at random from the list so far:
ZG16B (UniProt Q96DA0)
inactive: nilotinib -0.033 | [7] -0.211 | [8] -0.038 | quisinostat -0.02 | tipifarnib -0.055 | [2] 0.124 | [3] -0.144 | [4] 1.73 | vorinostat 0.177 | silmitasertib -0.213 | [6] 0.411 | entospletinib -0.129

ZCCHC4 (UniProt Q9H5U6)
inactive: nilotinib -0.024 | [7] -0.014 | dasatinib 0.115 | [8] -0.072 | [1] -0.091 | tipifarnib 0.064 | [5] -0.234 | entospletinib -0.175

The list continues.

ZFAT (UniProt Q9P243)
inactive: nilotinib -0.11 | [7] 0.027 | [8] 0.18 | tipifarnib 0.169 | [4] -0.134 | vorinostat 0.084 | silmitasertib -0.086 | entospletinib -0.011

ZFHX4 isoform 5 (UniProt Q86UP3)
inactive: nilotinib 0.035 | [7] 0.048 | [8] 0.083 | quisinostat 0.081 | tipifarnib -0.1 | [2] 0.004 | [3] 0.375 | [4] 0.115 | vorinostat -0.493 | silmitasertib 0 | [6] 0.015

ZFC3H1 (UniProt O60293)
inactive: nilotinib -0.021 | [7] -0.013 | dasatinib -0.057 | [8] -0.024 | [1] 0.03 | quisinostat -0.034 | tipifarnib 0.032 | [2] 0.068 | [3] 0.001 | [4] -0.074 | [5] 0.023 | vorinostat -0.159 | silmitasertib 0.045 | [6] 0.012 | entospletinib -0.094

ZBTB14 (UniProt O43829)
inactive: nilotinib 0.024 | [7] 0.049 | dasatinib 0.055 | [8] -0.111 | [1] 0.112 | quisinostat 0.038 | tipifarnib 0.211 | [2] 0.028 | [3] 0.064 | [4] 0.013 | vorinostat 0.257 | silmitasertib 0.007 | [6] -0.213

XRCC2 (UniProt O43543)
inactive: nilotinib 0.174 | [7] -0.213 | dasatinib -0.027 | [8] -0.148 | [1] -0.129 | quisinostat -0.058 | tipifarnib 0.033 | [2] 0.073 | [6] 0.025

XRCC5 (UniProt C9JZ81)
inactive: nilotinib 0 | [7] 0.005 | [8] -0.062 | tipifarnib 0.189 | [3] 0.016

ZC3H12A (UniProt Q5D1E8)
inactive: nilotinib -0.364 | [7] 0.363 | dasatinib 0.075 | [8] 0.027 | [1] -0.025 | quisinostat -0.119 | tipifarnib 0.039 | [2] 0.125 | [4] 0.056 | vorinostat -0.107 | silmitasertib -0.048 | [6] 0.069 | entospletinib -0.058

ZFYVE27 isoform 2 (UniProt Q5T4F4)
inactive: dasatinib 0.03 | [1] -0.067 | quisinostat 0.013 | [2] -0.075 | [3] -0.029 | [4] -0.003 | [5] -0.04 | vorinostat -0.209 | silmitasertib 0.028 | [6] -0.096 | entospletinib 0.149

ZBED4 (UniProt O75132)
inactive: [5] 0.06

XPOT (UniProt F5GYW6)
inactive: [3] -0.192

XRCC1 (UniProt F5H8D7)
inactive: dasatinib -0.02 | [1] 0.062 | [4] 0.044 | [5] 0.091 | vorinostat 0.115 | silmitasertib 0.123 | entospletinib -0.064

ZDHHC20 (UniProt Q5W0Z9)
inactive: dasatinib 0.055 | [1] -0.022 | quisinostat -0.088 | [2] -0.085 | [3] 0.011 | [5] 0.039 | [6] 0.032 | entospletinib 0.022

ZDHHC13 (UniProt Q8IUH4)
inactive: dasatinib -0.15 | [1] 0.096 | [4] 0.056 | [5] -0.052 | vorinostat 0.125 | silmitasertib 0.099

ZFYVE19 isoform 3 (UniProt Q96K21)
inactive: [3] -0.002

ZFP92 (UniProt A6NM28)
inactive: [5] -0.064 | entospletinib 0.019

ZBTB17 isoform 2 (UniProt Q13105)
inactive: dasatinib 0.007 | [1] -0.017 | quisinostat 0.022 | [2] 0.187 | [3] -0.001 | [4] 0.017 | vorinostat 0.086 | silmitasertib -0.002 | [6] 0.067

ZDHHC2 (UniProt Q9UIJ5)
inactive: quisinostat 0.105 | [2] 0.309 | [3] 0.002 | [4] 0.032 | vorinostat 0.327 | silmitasertib 0.215 | [6] -0.05 | entospletinib -0.034

Copied from the entries so far (2 entries):
ZFP92 (UniProt A6NM28)
inactive: [5] -0.064 | entospletinib 0.019

ZBTB17 isoform 2 (UniProt Q13105)
inactive: dasatinib 0.007 | [1] -0.017 | quisinostat 0.022 | [2] 0.187 | [3] -0.001 | [4] 0.017 | vorinostat 0.086 | silmitasertib -0.002 | [6] 0.067

The list goes on.

YAF2 isoform 5 (UniProt Q8IY57)
inactive: dasatinib 0.091 | [1] -0.129 | quisinostat 0.041 | [2] 0.05 | [3] -0.115 | [4] -0.15 | [5] 0.101 | vorinostat 0.123 | silmitasertib -0.113 | [6] -0.054 | entospletinib -0.031

YIF1A (UniProt O95070)
inactive: dasatinib 0.067 | [1] -0.045 | quisinostat -0.043 | [2] 0.086 | [3] 0.037 | [4] 0.014 | [5] 0.023 | vorinostat 0.133 | silmitasertib 0.007 | [6] -0.031 | entospletinib 0.024

ZBTB3 (UniProt Q9H5J0)
inactive: dasatinib -0.097 | [1] 0.02 | quisinostat -0.065 | [2] 0 | [3] 0.058 | [4] 0.024 | [5] -0.073 | vorinostat 0.043 | silmitasertib -0.024 | [6] 0.044 | entospletinib -0.033

YY1AP1 isoform 9 (UniProt Q9H869)
inactive: dasatinib 0.129 | [1] 0.052 | quisinostat 0.017 | [2] 0.154 | [4] -0.103 | vorinostat -0.286 | silmitasertib -0.193 | [6] -0.043 | entospletinib 0.008

YWHAZ (UniProt E7EX29)
inactive: [3] -0.191 | entospletinib 0.096

YBX1 (UniProt C9J5V9)
inactive: quisinostat 0.045 | [2] -0.045 | [6] 0.061

ZFAND1 (UniProt Q8TCF1)
inactive: dasatinib 0.005 | [1] 0.066 | quisinostat 0.121 | [2] -0.036 | [6] -0.078 | entospletinib -0.035

ZBTB10 (UniProt Q96DT7)
inactive: dasatinib 0.013 | [1] -0.017 | quisinostat -0.066 | [2] 0.034 | [3] 0.026 | [4] 0.005 | [5] -0.086 | vorinostat 0.027 | silmitasertib -0.014 | [6] 0.008 | entospletinib 0.012

ZFPM2 (UniProt Q8WW38)
inactive: dasatinib 0.045 | [1] -0.09 | quisinostat 0.072 | [2] 0.067 | [4] 0.024 | [5] 0.035 | vorinostat -0.045 | silmitasertib 0.023 | [6] 0.28 | entospletinib 0.05

ZBTB7B isoform 2 (UniProt O15156)
inactive: dasatinib 0.137 | [1] -0.179 | quisinostat -0.088 | [2] -0.018 | [6] 0.057

ZBTB1 (UniProt Q9Y2K1)
inactive: [3] 0.113 | [4] -0.082 | vorinostat -0.099 | silmitasertib 0.024 | entospletinib 0

ZC3H14 isoform 11 (UniProt Q6PJT7)
inactive: quisinostat -0.029 | [2] 0.166 | [6] 0.074

ZBED6 (UniProt P86452)
inactive: dasatinib -0.049 | [1] 0.022 | [3] -0.073 | [4] -0.127 | vorinostat 0.066 | silmitasertib 0.106

ZCCHC10 (UniProt Q8TBK6)
inactive: dasatinib 0.131 | [1] 0.106 | quisinostat 0.101 | [2] -0.414 | [6] 0.197 | entospletinib 0.07

ZC3H10 (UniProt Q96K80)
inactive: dasatinib 0.046 | [1] -0.049 | quisinostat 0.131 | [2] -0.206 | [6] -0.096

ZBTB5 (UniProt O15062)
inactive: dasatinib -0.006 | [1] 0.01 | quisinostat -0.062 | [2] 0.022 | [4] -0.024 | [5] -0.139 | vorinostat -0.047 | silmitasertib -0.034 | [6] -0.05 | entospletinib -0.11
